# Data as given in PubChem BioAssay AID2685 (National Center for Advancing Translational Sciences (NCATS), 2010).
# This is one part of the list. Shown are side measurements of this screen, not its main read-out; they come without a call. The list favours compounds with an active or inconclusive main result. Words in brackets tell the shape of the fitted curve; partial curves, single points and poor fits give uncertain potencies.
# Assay: qHTS Assay for Lipid Storage Modulators in Drosophila S3 Cells;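 for cell number change: cells counted by Cell Tracker Red CMTPX staining in the red channel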
# Settings: BODIPY lipid droplet fluorescence, 18-24 h; for cell number change: measured here: cell count max response, cells fed with added oleic acid
# Method in brief: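 Laser-scanning cytometry quantifies lipid droplet accumulation (500–530 nm total intensity; droplet/cell object ratio) in oleic acid-fed (400 uM added) Drosophila S3 cells treated with a concentration series. 20 uM Triacsin C defined 100% inhibition.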
# [1] = measured here: lipid fluorescence (Fed channel) AC50, cells fed with added oleic acid
# [2] = measured here: cell number channel AC50, cells fed with added oleic acid
Compound,cell number change,AC50 [1],AC50 [2]
O=C(NCCC1=CCCCC1)c1cc(COc2c(F)cccc2F)on1,0.306%,–,–
Cc1ccc(-c2nnc(SCCC(=O)N3CCOCC3)o2)cc1,21%,"7.31 µM [rising, partial curve]",–
COc1cc(NS(=O)(=O)c2ccc(NC(=O)/C(=C\c3ccccc3OC)NC(=O)c3ccccc3)cc2)nc(OC)n1,8.51%,"0.731 µM [falling, full curve]",–
C[C@H](CCC(=O)NCC(=O)O)[C@H]1CC[C@H]2C3[C@H](O)C[C@@H]4C[C@H](O)CC[C@]4(C)[C@H]3C[C@H](O)[C@]12C (some centres undefined),-28.2%,"0.164 µM [falling, full curve]",–
Cc1cccc([C@@H]2[C@@H]3C(=O)N(Cc4ccccc4)C(=O)[C@@H]3[C@]3(Cc4ccc(Cl)cc4)C(=O)N(c4cccc(Cl)c4)C(=O)N23)c1,–,"0.00461 µM [falling, full curve, poor fit]",–
CCCC(=O)NCCc1cc2c(C)ccc(C)c2[nH]c1=O,8.98%,"4.11 µM [rising, partial curve, poor fit]",–
CC(=O)Nc1ccc(/C=N/NC(=O)CCN2CCN(c3ccccc3)CC2)cc1,-22.4%,"29.1 µM [falling, single point]",–
Cc1cc(C)nc(SCC(=O)c2c(N)n(C)c(=O)n(C)c2=O)n1,32.2%,–,"23.1 µM [rising, partial curve]"
C=CCNC(=S)N1CCN(c2cccc(C(F)(F)F)c2)CC1,–,"6.51 µM [rising, single point]",–
CCOc1ccc(NC(=O)CNC(=O)Cc2ccccc2)cc1,18.1%,"13 µM [rising, partial curve]",–
O=C(CN(c1ccc(Cl)cc1)S(=O)(=O)c1ccccc1)N1CCN(c2ccccc2)CC1,85.3%,"20.6 µM [rising, partial curve]","29.1 µM [rising, single point]"
Oc1c(C2=NCCNC(C(F)(F)F)=C2)ccc2ccccc12,-51.8%,"18.4 µM [falling, partial curve]","16.4 µM [falling, partial curve]"
Cc1c(OC(C)C(=O)NCc2ccccn2)ccc2c3c(c(=O)oc12)CCCC3 (centres undefined),-43.3%,"6.51 µM [falling, partial curve]","1.03 µM [falling, full curve, poor fit]"
CCCCCCNC(=O)CCNS(=O)(=O)c1ccc(C)cc1,-19.6%,"29.1 µM [falling, partial curve, poor fit]",–
COC(=O)N1N=C(c2ccccc2)CC1(O)C(F)(F)F (centres undefined),–,"20.6 µM [rising, single point]",–
COc1ccccc1C(=O)NCCC(=O)N1CCN(S(=O)(=O)c2ccc(Cl)cc2)CC1,-24%,"0.461 µM [falling, full curve, poor fit]",–
CC1(C)CC(=O)CC(C)(C)N1OC(=O)c1ccncc1,-9.17%,"29.1 µM [falling, single point]",–
O=C(CN1CCN(c2ncccn2)CC1)N(Cc1ccccc1)c1ccc(F)cc1,50.2%,"3.66 µM [rising, single point]","10.3 µM [rising, partial curve]"
CCC(=O)c1ccc(OCC(=O)Nc2ccccc2C(=O)NC2CC2)cc1,-1.3%,"32.6 µM [rising, single point]",–

Compound,cell number change,AC50 [1],AC50 [2]
CC(OC(=O)C(C)Oc1ccccc1)C(=O)Nc1ccc(S(=O)(=O)N2CCCCC2)cc1 (centres undefined),-51%,"13 µM [falling, partial curve, poor fit]","16.4 µM [falling, single point]"
CCOC(=O)c1c(C)[nH]c(C(=O)COC(=O)c2c(CC)noc2C)c1C,-30%,–,"2.31 µM [rising, single point]"
COCc1cc(=O)[nH]c(Nc2nc(C)c3cc(OC)ccc3n2)n1,72.5%,"4.61 µM [rising, full curve]","5.8 µM [rising, full curve]"
CS(=O)(=O)N1CCC(C(=O)NNC(=O)Nc2ccc(F)c(Cl)c2)CC1,18.8%,–,"0.651 µM [rising, full curve, poor fit]"
N#Cc1nc(COc2ccccc2)oc1N1CCCCCC1,-0.884%,"0.58 µM [falling, single point]",–
Cc1ccc(CNC(=O)CSc2nc(=O)n3cccc(C)c3n2)cc1,–,–,"1.03 µM [rising, partial curve]"
CN(C(=O)COC(=O)CCC(=O)c1ccccc1)c1c(N)n(Cc2ccccc2)c(=O)[nH]c1=O,10.5%,"0.366 µM [falling, full curve, poor fit]",–
CN(C)c1cccc(C(=O)OCC(=O)NCC2CCCO2)c1 (centres undefined),-27.4%,"0.116 µM [falling, single point]","2.31 µM [falling, full curve, poor fit]"
CCCCCCCC(=O)Nc1cc(C(=O)NCCC)ccc1N1CCC2(CC1)CC(c1ccccc1)=NO2,68.6%,"16.4 µM [falling, partial curve]","20.6 µM [rising, partial curve]"
O=C(N1CCCCC1)C1(c2ccccc2)CCOCC1,-14.8%,–,–
O=C(Nc1ccc2nc3n(c(=O)c2c1)CCCC3)c1ccccc1F,-12.7%,"0.0058 µM [falling, full curve, poor fit]",–
Cc1cc(C)cc(NC(=O)COc2ccc3c(C)c(Cc4ccccc4)c(=O)oc3c2)c1,13.3%,–,–
O=[N+]([O-])c1ccc(S(=O)(=O)N/N=C/c2ccsc2)cc1,-8.22%,"29.1 µM [rising, single point]",–
CC1(C)c2ssc(=S)c2-c2ccccc2N1C(=O)CSC1=NCCS1,-27.9%,"6.51 µM [rising, single point]",–
COC(=O)c1ccccc1NC(=O)CN1CCC(C)CC1,15.3%,–,–
CC(=O)Nc1cccc(C(=O)Nc2ccc(S(=O)(=O)N3CCCCC3)cc2)c1,-21.4%,–,–
CSc1ccccc1C(=O)C1CCCN(C(=O)c2ccc(N3CCOCC3)cc2)C1 (centres undefined),-45.1%,"29.1 µM [falling, single point]","23.1 µM [falling, single point]"
CC(C)CCN(C)C1CCN(S(=O)(=O)c2cccc(C(F)(F)F)c2)CC1,3.94%,"29.1 µM [rising, single point]",–
COc1cc(/C=N/NC(=O)c2cccc(NC(=O)c3ccccc3)c2)ccc1O,-43.7%,–,"16.4 µM [falling, partial curve, poor fit]"

Compound,cell number change,AC50 [1],AC50 [2]
C=CCNC(=O)C1CC=CCC1C(=O)O (centres undefined),-1.84%,"3.26 µM [falling, full curve, poor fit]",–
CCOc1ccc(NC2=NC(C(=O)NCc3ccccc3)CC(=O)N2)cc1 (centres undefined),7.82%,"0.651 µM [rising, single point]",–
CCOc1ccccc1-n1c(SCC(=O)N2CCOCC2)nc2ccccc2c1=O,-1.32%,"5.62 µM [rising, single point]",–
Cn1c(SCc2ccccc2Cl)nc(C(F)(F)F)cc1=O,31.6%,–,–
O=C1CC(C(=O)NC2CCCCC2)C2(CCCCC2)O1 (centres undefined),2.85%,"0.0184 µM [rising, full curve, poor fit]",–
COc1ccc(CN2C(=O)c3cccnc3C2=O)cc1S(=O)(=O)N1CCCCC1C (centres undefined),-4.2%,"2.06 µM [falling, partial curve]","3.66 µM [falling, single point]"
N=c1n(Cc2ccc(Cl)cc2)c2ccccc2n1CC(O)COc1ccccc1 (centres undefined),-55.1%,"3.26 µM [falling, partial curve, poor fit]","29.1 µM [falling, partial curve, poor fit]"
O=C(C1CCCN(S(=O)(=O)c2cccc3nsnc23)C1)N1CCN(c2ccccn2)CC1 (centres undefined),–,"2.91 µM [rising, partial curve]","3.66 µM [rising, partial curve, poor fit]"
CC(C)c1ccc(NC(=O)COC(=O)c2cc(=O)[nH]c3ccccc23)cc1,4.95%,"2.31 µM [rising, full curve, poor fit]",–
O=C(NC(=S)NCc1ccccc1)C1CC1,-20.8%,"29.1 µM [falling, single point]",–
Cc1ccnc(N2CCC(C(=O)NNC(=O)COc3cccc4ccccc34)CC2)n1,47.7%,"18.4 µM [rising, partial curve, poor fit]","29.1 µM [rising, single point]"
Cc1ccc(S(=O)(=O)NCC(=O)N2CCCC2)cc1,1.1%,"29.1 µM [falling, single point]",–
O=C(O)c1cc(S(=O)(=O)Nc2cccc3ccccc23)c(Cl)cc1Cl,8.75%,–,–
CCOC(=O)C1CCCN(CC(=O)Nc2c(C(=O)OC)[nH]c3ccc(Br)cc23)C1 (centres undefined),-30.4%,"23.1 µM [falling, single point]","8.2 µM [falling, partial curve, poor fit]"
N#Cc1nc(/C=C/c2ccccc2)oc1NCCCN1CCOCC1,70.4%,–,"5.8 µM [rising, partial curve]"
Cc1cccc(NC(=O)c2cc(Cl)sc2Cl)c1C,17.1%,–,–
CCOc1cc(C2NC(=S)NC(C)=C2C(=O)Nc2ccccc2)ccc1O (centres undefined),-14.1%,"32.6 µM [falling, single point]",–
O=C(c1ccc2c(c1)OCO2)C1CCCN(Cc2cccc(C(F)(F)F)c2)C1 (centres undefined),43.8%,"29.1 µM [rising, single point]","29.1 µM [rising, single point]"

# Taken from the listing (2 entries):
Compound,cell number change,AC50 [1],AC50 [2]
COc1ccc(CN2C(=O)c3cccnc3C2=O)cc1S(=O)(=O)N1CCCCC1C (centres undefined),-4.2%,"2.06 µM [falling, partial curve]","3.66 µM [falling, single point]"
N=c1n(Cc2ccc(Cl)cc2)c2ccccc2n1CC(O)COc1ccccc1 (centres undefined),-55.1%,"3.26 µM [falling, partial curve, poor fit]","29.1 µM [falling, partial curve, poor fit]"
